Part of at least one peptide drawing is inferred or uncertain, most often the ends. Some of these results come from one statement about several compounds together. No end group written: not given here.
Columns and labels:
ABCA1 [1] = biological target: T1, ABCA1 (Mus musculus, UniProt P41233); test: ABCA1-dependent [3H]cholesterol efflux from J774 macrophages with and without cAMP; type: cell-based; conditions: for efficiency of stimulating cholesterol efflux (concentration dependence): dose response; for ABCA1-dependent cholesterol efflux activity (ABCA1 component of efflux): J774 macrophages, saturating concentration of 3 μg/ml; for Km: read-out: Km for cholesterol efflux
T1 construct: treated (18 h) with a cAMP analog to induce ABCA1 protein expression; endogenous in cells; host or cells: J774 macrophages
Source text: Suitable cholesterol efflux assays are described in, e.g., Bielicki, J. K and Oda, M. N., Biochemistry, 41:2089-2096 (2002); Jia et al., Biochem. Biophys. Res. Common., 297:206-213 (2002). In some embodiments, a polypeptide known to mediate cholesterol efflux (e.g., helix 9/10 of Apo A-I) is used to screen for additional mediators of cholesterol efflux in a cell based assay. For example, cell lines in which cholesterol efflux can be enhanced using a cAMP analog that up-regulates ABCA1 protein expression (e.g., J774 macrophages) can conveniently be used to assess the ability of a polypeptide of the present invention to mediate cholesterol efflux. The cells are incubated with labeled cholesterol (e.g., [^3H]cholesterol) under conditions appropriate for cholesterol uptake by the cells. Thus, cAMP or cAMP analogs (e.g., CPT-cAMP) are incubated with the cells for a suitable time before the initiation of cellular cholesterol efflux, i.e., prior to contacting the cells with a test polypeptide. Measurement of labeled cholesterol appearing in the medium is used to determine the cholesterol efflux mediating activity of the test polypeptide.
Aliphatic analogs of ATI-5261 lacking phenylalanine residues retained potent ABCA1 selective cholesterol efflux activity (FIG. 7). J774 macrophages were labeled (48 h) with [^3H]cholesterol and treated (18 h) with a cAMP analog to induce ABCA1 protein expression; cells incubated in the absence of cAMP (left bars) served as controls. […] Peptides were used at a concentration of 30 μg/ml, which was maximal for promoting cholesterol efflux activity. Panel B—Dependence of cholesterol efflux on the concentration of peptides. […] Results are expressed as the difference in cholesterol efflux (%/4 h) observed using cAMP treated vs. non-treated J774 cells. Values are means±SD, n=3.

Sequences of proteins named here, by UniProt entry; tags and fusion partners are left off. A change or cut given only in a name is not applied to a line headed by its entry.
UniProt P41233: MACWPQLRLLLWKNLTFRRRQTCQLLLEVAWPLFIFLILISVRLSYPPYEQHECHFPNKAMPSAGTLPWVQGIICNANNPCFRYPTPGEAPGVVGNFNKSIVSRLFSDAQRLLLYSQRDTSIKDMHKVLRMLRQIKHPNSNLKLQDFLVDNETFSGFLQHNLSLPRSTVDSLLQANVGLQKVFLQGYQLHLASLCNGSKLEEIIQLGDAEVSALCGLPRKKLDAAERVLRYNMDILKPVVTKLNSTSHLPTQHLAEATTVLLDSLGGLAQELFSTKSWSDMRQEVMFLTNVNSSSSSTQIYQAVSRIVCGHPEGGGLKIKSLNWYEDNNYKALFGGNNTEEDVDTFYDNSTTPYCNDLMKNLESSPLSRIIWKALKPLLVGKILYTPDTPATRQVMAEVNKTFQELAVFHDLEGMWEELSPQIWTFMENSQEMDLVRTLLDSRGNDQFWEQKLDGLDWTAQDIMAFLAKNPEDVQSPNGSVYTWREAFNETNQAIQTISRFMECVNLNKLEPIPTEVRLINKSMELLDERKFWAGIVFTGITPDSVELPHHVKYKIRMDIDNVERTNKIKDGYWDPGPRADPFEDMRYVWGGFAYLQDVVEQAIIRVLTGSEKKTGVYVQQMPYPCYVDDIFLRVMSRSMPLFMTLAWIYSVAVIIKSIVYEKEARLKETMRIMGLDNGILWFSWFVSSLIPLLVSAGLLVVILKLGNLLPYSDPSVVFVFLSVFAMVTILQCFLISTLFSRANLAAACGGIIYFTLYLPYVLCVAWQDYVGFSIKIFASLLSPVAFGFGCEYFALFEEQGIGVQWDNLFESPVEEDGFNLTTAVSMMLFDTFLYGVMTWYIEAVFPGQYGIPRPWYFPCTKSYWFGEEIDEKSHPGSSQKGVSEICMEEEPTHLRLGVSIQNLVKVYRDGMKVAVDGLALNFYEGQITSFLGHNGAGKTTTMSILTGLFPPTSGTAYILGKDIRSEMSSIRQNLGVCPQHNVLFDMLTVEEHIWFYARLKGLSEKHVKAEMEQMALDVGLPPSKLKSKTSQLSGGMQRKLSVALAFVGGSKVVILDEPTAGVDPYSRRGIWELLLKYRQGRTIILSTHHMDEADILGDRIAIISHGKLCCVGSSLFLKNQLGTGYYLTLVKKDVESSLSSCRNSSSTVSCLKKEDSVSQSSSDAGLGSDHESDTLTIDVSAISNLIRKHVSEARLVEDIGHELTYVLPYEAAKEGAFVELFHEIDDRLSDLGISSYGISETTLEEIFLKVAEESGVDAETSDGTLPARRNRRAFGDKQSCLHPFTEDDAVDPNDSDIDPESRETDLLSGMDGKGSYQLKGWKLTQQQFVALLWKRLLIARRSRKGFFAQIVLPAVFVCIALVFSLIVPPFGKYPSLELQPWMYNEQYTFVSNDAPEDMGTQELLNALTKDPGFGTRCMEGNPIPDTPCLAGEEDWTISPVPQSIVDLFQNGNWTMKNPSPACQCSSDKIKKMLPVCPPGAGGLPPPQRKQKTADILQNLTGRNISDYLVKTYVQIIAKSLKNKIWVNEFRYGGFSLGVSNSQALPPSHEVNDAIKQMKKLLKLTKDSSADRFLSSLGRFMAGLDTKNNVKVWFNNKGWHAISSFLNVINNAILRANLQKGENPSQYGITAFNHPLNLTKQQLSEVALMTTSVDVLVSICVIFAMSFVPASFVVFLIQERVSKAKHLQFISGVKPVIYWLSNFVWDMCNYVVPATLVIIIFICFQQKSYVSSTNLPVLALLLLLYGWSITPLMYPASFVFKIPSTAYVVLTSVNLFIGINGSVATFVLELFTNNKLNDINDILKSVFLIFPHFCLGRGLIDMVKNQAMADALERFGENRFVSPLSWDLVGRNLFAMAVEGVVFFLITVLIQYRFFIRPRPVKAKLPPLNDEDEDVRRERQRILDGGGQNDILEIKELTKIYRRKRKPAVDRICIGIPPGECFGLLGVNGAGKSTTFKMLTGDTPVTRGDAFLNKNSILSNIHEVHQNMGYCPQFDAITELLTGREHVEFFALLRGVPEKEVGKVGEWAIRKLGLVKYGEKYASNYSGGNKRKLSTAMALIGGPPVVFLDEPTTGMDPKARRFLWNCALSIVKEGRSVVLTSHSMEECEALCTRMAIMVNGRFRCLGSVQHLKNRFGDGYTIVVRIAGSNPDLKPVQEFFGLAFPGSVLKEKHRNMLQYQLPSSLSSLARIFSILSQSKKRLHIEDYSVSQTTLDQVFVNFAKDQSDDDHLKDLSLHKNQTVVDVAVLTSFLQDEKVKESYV

ABCA1 [2] = biological target: T1, ABCA1; test: as above; type: cell-based; conditions: peptide 30 μg/ml
[3] = cAMP treated J774 cells, increasing concentration of peptides, 4 h

Sequence	efficiency of stimulating cholesterol efflux (concentration dependence) (ABCA1 [1]; cAMP treated J774 cells)	ABCA1-dependent cholesterol efflux activity (ABCA1 component of efflux) (ABCA1 [1])	Km (ABCA1 [1]; [3]) [µM]	peptide concentration at saturation in cholesterol efflux (ABCA1 [1]; [3])	ABCA1-dependent cholesterol efflux activity (ABCA1 [2])
EARSKAEEWLAALRELAEELLARAKS [T5505-12]	weak activity				
EVRSKLEEWLAALRELAEELAARLKS [T4883-7]		stimulated high-levels of cholesterol efflux	≤ 0.996		
EVRSKLEEWLAALRELAEELLARAKS [T4883-6]		stimulated high-levels of cholesterol efflux	≤ 0.996		
EVRSKLEEWLAALRELAEELLARLKS [T5055-13]	high efficiency			roughly 3 μg/ml	stimulated cholesterol efflux in an ABCA1-dependent manner

From patent publication US9416162B2, “Peptides having reduced toxicity that stimulate cholesterol efflux” (The Regents of the University of California, priority 2013, dated 2016)
